# Laboratory results: the supplement of paper PMC10849652
# Amino acid sequences for entries named in this document (tags omitted). A change or cut given only in a name is not applied to a line headed by its entry.
# UniProt Q6ZMG9: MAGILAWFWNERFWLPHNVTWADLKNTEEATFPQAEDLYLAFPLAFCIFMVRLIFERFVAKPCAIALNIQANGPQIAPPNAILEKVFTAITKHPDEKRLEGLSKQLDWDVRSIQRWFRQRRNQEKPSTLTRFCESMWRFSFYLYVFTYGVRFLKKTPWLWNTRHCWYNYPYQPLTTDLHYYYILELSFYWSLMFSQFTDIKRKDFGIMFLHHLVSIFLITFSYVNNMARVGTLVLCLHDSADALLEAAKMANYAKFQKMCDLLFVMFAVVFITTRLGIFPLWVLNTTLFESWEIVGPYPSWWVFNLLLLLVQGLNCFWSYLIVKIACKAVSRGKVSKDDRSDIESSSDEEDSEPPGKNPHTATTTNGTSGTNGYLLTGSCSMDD
# UniProt P49336: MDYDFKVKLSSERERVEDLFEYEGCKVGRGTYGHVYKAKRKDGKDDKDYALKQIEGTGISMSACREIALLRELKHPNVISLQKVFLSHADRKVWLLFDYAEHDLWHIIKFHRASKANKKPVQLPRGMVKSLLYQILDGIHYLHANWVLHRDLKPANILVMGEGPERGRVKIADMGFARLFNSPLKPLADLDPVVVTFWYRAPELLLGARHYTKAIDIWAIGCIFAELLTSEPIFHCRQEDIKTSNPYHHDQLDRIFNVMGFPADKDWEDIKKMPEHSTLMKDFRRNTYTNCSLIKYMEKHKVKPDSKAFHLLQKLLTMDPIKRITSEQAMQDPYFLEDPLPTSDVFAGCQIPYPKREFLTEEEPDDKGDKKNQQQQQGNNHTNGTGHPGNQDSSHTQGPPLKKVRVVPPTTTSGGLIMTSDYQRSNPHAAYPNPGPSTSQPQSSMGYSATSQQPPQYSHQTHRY
# UniProt Q9Y5P4: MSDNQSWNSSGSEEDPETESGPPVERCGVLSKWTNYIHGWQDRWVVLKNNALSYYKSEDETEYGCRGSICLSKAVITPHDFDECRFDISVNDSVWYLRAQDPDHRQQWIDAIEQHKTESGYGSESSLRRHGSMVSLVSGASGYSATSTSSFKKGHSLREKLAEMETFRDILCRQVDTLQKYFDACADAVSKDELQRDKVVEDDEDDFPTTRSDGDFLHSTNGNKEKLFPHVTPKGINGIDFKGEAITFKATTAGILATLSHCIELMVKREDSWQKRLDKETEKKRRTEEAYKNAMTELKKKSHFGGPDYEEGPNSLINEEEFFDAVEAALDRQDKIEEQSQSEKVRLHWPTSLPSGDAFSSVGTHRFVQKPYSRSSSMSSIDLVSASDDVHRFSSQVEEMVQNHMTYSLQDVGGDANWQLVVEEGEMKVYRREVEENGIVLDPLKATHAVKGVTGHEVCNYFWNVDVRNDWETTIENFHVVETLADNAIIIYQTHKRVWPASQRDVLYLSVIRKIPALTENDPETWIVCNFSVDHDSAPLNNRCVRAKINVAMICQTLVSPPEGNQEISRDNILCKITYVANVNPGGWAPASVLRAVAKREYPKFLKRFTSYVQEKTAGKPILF
# UniProt Q02224: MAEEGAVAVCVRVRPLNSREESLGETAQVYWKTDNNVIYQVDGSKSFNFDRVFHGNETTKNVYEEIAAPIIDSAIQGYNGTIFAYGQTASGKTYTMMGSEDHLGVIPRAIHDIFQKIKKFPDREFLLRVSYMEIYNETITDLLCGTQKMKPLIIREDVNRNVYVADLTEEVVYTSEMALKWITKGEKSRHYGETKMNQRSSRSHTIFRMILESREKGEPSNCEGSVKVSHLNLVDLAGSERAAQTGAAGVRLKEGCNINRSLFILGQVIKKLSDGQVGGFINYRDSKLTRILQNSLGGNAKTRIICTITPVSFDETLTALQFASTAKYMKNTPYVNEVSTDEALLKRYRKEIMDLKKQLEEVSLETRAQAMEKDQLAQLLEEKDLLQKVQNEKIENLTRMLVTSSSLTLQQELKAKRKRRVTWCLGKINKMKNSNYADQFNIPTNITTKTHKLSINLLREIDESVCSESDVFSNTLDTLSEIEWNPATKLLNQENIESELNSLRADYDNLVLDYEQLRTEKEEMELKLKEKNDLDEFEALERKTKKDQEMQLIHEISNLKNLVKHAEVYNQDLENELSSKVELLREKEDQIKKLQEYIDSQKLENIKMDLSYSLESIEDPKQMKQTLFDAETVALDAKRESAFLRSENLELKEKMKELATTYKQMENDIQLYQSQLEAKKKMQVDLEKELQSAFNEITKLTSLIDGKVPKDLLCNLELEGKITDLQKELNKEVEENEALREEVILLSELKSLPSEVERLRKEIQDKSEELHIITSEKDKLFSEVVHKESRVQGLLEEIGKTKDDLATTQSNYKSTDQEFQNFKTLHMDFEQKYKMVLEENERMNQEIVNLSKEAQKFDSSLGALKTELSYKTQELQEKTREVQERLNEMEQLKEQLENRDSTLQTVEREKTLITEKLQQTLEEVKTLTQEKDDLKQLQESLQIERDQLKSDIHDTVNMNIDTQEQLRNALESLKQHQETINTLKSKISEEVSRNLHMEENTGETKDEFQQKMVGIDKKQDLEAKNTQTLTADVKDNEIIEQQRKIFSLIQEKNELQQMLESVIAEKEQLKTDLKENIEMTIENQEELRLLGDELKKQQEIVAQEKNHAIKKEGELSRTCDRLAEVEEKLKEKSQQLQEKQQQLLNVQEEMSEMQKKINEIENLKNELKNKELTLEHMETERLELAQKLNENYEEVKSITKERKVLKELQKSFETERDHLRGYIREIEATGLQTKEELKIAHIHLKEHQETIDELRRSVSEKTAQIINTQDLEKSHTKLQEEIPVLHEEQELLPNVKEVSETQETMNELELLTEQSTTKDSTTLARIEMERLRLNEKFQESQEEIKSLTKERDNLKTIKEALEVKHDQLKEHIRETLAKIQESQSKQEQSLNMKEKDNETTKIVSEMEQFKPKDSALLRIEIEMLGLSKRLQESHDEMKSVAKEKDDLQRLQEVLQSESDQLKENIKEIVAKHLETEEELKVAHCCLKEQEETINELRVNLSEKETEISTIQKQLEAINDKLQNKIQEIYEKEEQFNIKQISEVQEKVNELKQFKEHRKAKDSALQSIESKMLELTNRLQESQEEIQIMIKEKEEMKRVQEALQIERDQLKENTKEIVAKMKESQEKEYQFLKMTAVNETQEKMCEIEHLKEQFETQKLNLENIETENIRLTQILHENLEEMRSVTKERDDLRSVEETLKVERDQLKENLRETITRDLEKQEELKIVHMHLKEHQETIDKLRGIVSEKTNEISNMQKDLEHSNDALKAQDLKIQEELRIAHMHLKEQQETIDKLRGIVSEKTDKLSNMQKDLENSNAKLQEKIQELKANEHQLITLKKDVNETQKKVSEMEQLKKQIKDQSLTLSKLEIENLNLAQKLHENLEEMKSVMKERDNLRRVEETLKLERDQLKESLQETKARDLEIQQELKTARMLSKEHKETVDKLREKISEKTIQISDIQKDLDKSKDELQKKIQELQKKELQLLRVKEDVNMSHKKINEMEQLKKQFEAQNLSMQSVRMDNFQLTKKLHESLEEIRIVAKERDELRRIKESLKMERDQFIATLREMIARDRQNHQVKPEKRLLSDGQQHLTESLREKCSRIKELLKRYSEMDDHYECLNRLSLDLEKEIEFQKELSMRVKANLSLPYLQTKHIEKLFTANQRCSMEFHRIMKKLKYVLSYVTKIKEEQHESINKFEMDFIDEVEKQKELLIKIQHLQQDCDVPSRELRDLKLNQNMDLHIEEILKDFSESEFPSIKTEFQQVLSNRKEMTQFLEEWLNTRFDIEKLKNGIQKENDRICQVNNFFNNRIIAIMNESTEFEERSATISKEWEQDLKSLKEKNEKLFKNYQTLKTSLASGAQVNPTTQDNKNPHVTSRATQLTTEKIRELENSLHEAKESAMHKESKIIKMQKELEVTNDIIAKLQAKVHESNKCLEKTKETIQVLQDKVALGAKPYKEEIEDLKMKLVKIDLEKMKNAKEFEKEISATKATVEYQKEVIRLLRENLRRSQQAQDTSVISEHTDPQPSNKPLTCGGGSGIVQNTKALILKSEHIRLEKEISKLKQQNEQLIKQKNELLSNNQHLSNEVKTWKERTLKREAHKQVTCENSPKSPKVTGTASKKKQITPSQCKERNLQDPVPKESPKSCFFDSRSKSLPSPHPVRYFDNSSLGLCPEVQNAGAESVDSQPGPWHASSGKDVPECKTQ
# UniProt O95674: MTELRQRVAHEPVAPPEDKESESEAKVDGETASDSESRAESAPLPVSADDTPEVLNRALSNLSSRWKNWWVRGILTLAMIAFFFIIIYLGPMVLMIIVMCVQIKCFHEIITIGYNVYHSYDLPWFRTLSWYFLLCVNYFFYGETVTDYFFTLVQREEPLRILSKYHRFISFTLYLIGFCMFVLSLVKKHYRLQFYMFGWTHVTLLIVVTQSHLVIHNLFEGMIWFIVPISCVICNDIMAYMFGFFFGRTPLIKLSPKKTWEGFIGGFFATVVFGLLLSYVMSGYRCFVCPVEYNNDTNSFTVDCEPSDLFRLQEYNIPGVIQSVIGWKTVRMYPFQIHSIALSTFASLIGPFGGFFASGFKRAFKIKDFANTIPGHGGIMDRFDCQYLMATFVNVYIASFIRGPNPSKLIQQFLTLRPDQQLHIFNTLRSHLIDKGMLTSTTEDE
# UniProt Q00587: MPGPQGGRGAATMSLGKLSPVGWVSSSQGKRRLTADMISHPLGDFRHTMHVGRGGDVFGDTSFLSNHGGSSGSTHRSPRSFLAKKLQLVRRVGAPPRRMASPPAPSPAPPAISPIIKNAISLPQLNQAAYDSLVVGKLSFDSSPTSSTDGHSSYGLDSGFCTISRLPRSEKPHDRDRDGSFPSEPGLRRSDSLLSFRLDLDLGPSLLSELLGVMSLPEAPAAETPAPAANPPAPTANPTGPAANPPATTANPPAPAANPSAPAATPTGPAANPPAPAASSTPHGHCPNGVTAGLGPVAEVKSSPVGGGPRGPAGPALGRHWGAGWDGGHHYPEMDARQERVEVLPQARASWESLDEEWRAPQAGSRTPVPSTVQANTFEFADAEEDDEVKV
# UniProt Q7L3B6: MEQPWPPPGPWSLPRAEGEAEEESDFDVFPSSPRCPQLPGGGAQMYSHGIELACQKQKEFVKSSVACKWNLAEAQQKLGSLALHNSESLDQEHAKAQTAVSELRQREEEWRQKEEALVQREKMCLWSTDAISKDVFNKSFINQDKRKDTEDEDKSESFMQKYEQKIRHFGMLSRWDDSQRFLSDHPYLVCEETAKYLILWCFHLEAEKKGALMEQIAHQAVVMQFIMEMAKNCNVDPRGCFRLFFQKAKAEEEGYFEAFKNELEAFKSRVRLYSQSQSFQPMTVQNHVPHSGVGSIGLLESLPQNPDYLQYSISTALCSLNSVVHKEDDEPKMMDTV
# UniProt Q8TAP6: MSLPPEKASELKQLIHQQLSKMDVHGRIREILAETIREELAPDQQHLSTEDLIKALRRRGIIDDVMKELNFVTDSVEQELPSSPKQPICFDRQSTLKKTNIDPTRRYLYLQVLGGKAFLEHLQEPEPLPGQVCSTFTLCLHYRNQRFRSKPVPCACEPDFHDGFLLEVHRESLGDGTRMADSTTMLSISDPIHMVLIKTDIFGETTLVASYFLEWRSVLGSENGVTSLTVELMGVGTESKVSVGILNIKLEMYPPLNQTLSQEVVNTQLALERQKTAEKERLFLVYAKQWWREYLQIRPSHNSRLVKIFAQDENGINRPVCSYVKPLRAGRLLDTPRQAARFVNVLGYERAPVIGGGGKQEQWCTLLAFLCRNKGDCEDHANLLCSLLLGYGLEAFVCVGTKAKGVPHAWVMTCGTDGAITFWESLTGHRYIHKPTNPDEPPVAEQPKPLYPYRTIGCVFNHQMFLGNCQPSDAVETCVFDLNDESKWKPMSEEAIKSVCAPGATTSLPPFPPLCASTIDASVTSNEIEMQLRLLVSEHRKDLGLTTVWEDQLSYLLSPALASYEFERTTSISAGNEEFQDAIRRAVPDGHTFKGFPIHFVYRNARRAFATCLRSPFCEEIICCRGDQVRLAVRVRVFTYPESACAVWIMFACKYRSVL
# This is one part of the list.
# Key:
# Assay in all cases: log2 fold change, soluble protein after heating vs DMSO (PISA); higher = thermal stabilisation; K562 lysate, 10 uM; active = over 0.2 and 3.5 SD of the protein, either way, in both replicates (recomputed)
# lapatinib = compound: CS(=O)(=O)CCNCc1ccc(-c2ccc3ncnc(Nc4ccc(OCc5cccc(F)c5)c(Cl)c4)c3c2)o1 [lapatinib]
# Summary of the method: (§1)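 Following dounce homogenisation of K562 pellets in PBS pH 7.4 with 1 mM MgCl2, crude extract at 1 mg/mL protein was incubated for 30 min with 10 μM compound. Aliquots were then heated for 3 min over 48°C-58°C and pooled, NP-40 was added to 0.5% at 4°C, and soluble protein was recovered as the supernatant at 21,000xg for 90 min. Channel-sum-equalised TMTpro 16plex LC-MS/MS quantified this protein. Each value, from duplicates, is a log-two fold change in thermal stability relative to solvent controls.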
# pictilisib = compound: CS(=O)(=O)N1CCN(Cc2cc3nc(-c4cccc5[nH]ncc45)nc(N4CCOCC4)c3s2)CC1 [pictilisib]
# Summary of the method: as §1
# crizotinib = compound: C[C@@H](Oc1cc(-c2cnn(C3CCNCC3)c2)cnc1N)c1c(Cl)ccc(F)c1Cl [crizotinib]
# Summary of the method: as §1
# [1] = compound: C[C@H](C1=CC=C(C=C1)C(=O)NC2=C3C=CNC3=NC=C2)N
# Summary of the method: as §1
# duvelisib = compound: C[C@H](Nc1ncnc2nc[nH]c12)c1cc2cccc(Cl)c2c(=O)n1-c1ccccc1 [duvelisib]
# Summary of the method: as §1
# gandotinib = compound: Cc1cc(Nc2cc(CN3CCOCC3)c3nc(C)c(Cc4ccc(Cl)cc4F)n3n2)n[nH]1 [gandotinib]
# Summary of the method: as §1
# tozasertib = compound: Cc1cc(Nc2cc(N3CCN(C)CC3)nc(Sc3ccc(NC(=O)C4CC4)cc3)n2)n[nH]1 [tozasertib]
# Summary of the method: as §1
# doramapimod = compound: Cc1ccc(-n2nc(C(C)(C)C)cc2NC(=O)Nc2ccc(OCCN3CCOCC3)c3ccccc23)cc1 [doramapimod]
# Summary of the method: as §1
# bafetinib = compound: Cc1ccc(NC(=O)c2ccc(CN3CC[C@H](N(C)C)C3)c(C(F)(F)F)c2)cc1Nc1nccc(-c2cncnc2)n1 [bafetinib]
# Summary of the method: as §1
# [2] = compound: Cc1cccc(CC(=O)N2CCc3c2ccc(-c2cn(C)c4ncnc(N)c24)c3F)n1
# Summary of the method: as §1
# nilotinib = compound: Cc1cn(-c2cc(NC(=O)c3ccc(C)c(Nc4nccc(-c5cccnc5)n4)c3)cc(C(F)(F)F)c2)cn1 [nilotinib]
# Summary of the method: as §1
# [3] = compound: Cc1nc(Nc2n[nH]c3c2CN(C(=O)N[C@H](CN(C)C)c2ccccc2)C3(C)C)c2sccc2n1
# Summary of the method: as §1
# dasatinib = compound: Cc1nc(Nc2ncc(C(=O)Nc3c(C)cccc3Cl)s2)cc(N2CCN(CCO)CC2)n1 [dasatinib]
# Summary of the method: as §1
# [4] = compound: Cc1ncc(-c2ccnc(Nc3ccc(S(C)(=O)=O)cc3)n2)n1C(C)C
# Summary of the method: as §1
# [5] = compound: Cn1cc(-c2ccc3c(c2)CCN3C(=O)Cc2cccc(C(F)(F)F)c2)c2c(N)ncnc21
# Summary of the method: as §1
# quisinostat = compound: Cn1cc(CNCC2CCN(c3ncc(C(=O)NO)cn3)CC2)c2ccccc21 [quisinostat]
# Summary of the method: as §1
# tipifarnib = compound: Cn1cncc1[C@@](N)(c1ccc(Cl)cc1)c1ccc2c(c1)c(-c1cccc(Cl)c1)cc(=O)n2C [tipifarnib]
# Summary of the method: as §1
# [6] = compound: NC(=O)Nc1cc(-c2cccc(F)c2)sc1C(=O)N[C@H]1CCCNC1
# Summary of the method: as §1
# [7] = compound: NC(=O)c1cnc(N[C@@H]2CCCC[C@@H]2N)nc1Nc1cccc(-n2nccn2)c1
# Summary of the method: as §1
# [8] = compound: NC1(c2ccc(-c3nc4ccn5c(=O)[nH]nc5c4cc3-c3ccccc3)cc2)CCC1
# Summary of the method: as §1
Target,log2 fold change (lapatinib),log2 fold change (pictilisib),log2 fold change (crizotinib),log2 fold change [1],log2 fold change (duvelisib),log2 fold change (gandotinib),log2 fold change (tozasertib),log2 fold change (doramapimod),log2 fold change (bafetinib),log2 fold change [2],log2 fold change (nilotinib),log2 fold change [3],log2 fold change (dasatinib),log2 fold change [4],log2 fold change [5],log2 fold change (quisinostat),log2 fold change (tipifarnib),log2 fold change [6],log2 fold change [7],log2 fold change [8]
CERS6 isoform 2 (UniProt Q6ZMG9),inactive: -0.037,inactive: 0,inactive: 0.058,inactive: -0.187,inactive: 0.208,inactive: -0.052,inactive: 0.132,inactive: -0.044,inactive: 0.063,inactive: 0.001,inactive: 0.1,inactive: -0.225,inactive: 0.06,inactive: 0,inactive: -0.101,inactive: 0.037,inactive: -0.087,inactive: -0.048,inactive: -0.028,inactive: 0.004
CDK8 (UniProt P49336),inactive: -0.035,inactive: -0.033,inactive: -0.032,inactive: 0.129,inactive: -0.075,inactive: -0.065,–,inactive: 0.322,inactive: -0.043,inactive: 0.119,inactive: -0.025,inactive: -0.037,inactive: -0.054,inactive: 0.119,inactive: -0.032,inactive: -0.05,inactive: -0.209,inactive: 0.018,inactive: -0.006,inactive: -0.033
CERT isoform 3 (UniProt Q9Y5P4),inactive: -0.017,inactive: -0.008,inactive: 0.015,inactive: -0.039,inactive: -0.011,inactive: -0.068,inactive: 0.003,inactive: 0.026,inactive: -0.015,inactive: 0.049,inactive: -0.015,inactive: -0.03,inactive: -0.012,inactive: -0.023,inactive: 0.036,inactive: -0.004,inactive: 0.019,inactive: 0.013,inactive: 0.014,inactive: -0.016
CENPE (UniProt Q02224),inactive: 0.069,inactive: -0.049,inactive: -0.06,inactive: -0.103,inactive: -0.005,inactive: 0.04,inactive: -0.024,inactive: 0.018,inactive: -0.042,inactive: 0.156,inactive: -0.017,inactive: 0.015,inactive: -0.055,inactive: 0.001,inactive: 0.038,inactive: -0.143,inactive: -0.099,inactive: 0.04,inactive: -0.044,inactive: -0.032
CDS2 (UniProt O95674),inactive: 0.02,inactive: -0.007,inactive: 0.031,inactive: -0.029,inactive: 0.088,inactive: 0.048,inactive: 0.054,inactive: 0.009,inactive: 0.006,inactive: 0.019,inactive: -0.035,inactive: -0.093,inactive: 0.073,inactive: 0.062,inactive: -0.005,inactive: -0.045,inactive: 0.093,inactive: -0.01,inactive: 0,inactive: -0.152
CDC42EP1 (UniProt Q00587),inactive: -0.023,inactive: 0.053,inactive: -0.014,inactive: 0.099,inactive: 0.195,inactive: -0.05,inactive: 0.017,inactive: 0.071,inactive: -0.012,inactive: 0.117,inactive: -0.1,inactive: 0.148,inactive: -0.105,inactive: 0.029,inactive: -0.18,inactive: -0.091,inactive: -0.221,inactive: 0.031,inactive: 0,inactive: 0.089
CDC37L1 (UniProt Q7L3B6),inactive: -0.008,inactive: -0.024,inactive: 0.026,inactive: 0.02,inactive: 0.032,inactive: 0.028,inactive: 0.04,inactive: 0,inactive: -0.029,inactive: 0.023,inactive: 0.032,inactive: 0.05,inactive: -0.034,inactive: -0.009,inactive: 0.042,inactive: -0.043,inactive: -0.105,inactive: 0.004,inactive: 0.006,inactive: 0.007
CEP76 (UniProt Q8TAP6),inactive: -0.031,inactive: -0.073,inactive: -0.106,inactive: -0.063,inactive: 0.141,inactive: 0.007,inactive: 0.079,inactive: 0.085,inactive: -0.115,inactive: 0.027,inactive: -0.005,inactive: -0.021,inactive: -0.002,inactive: -0.021,inactive: -0.005,active: -0.241,inactive: 0.006,inactive: -0.01,inactive: -0.015,inactive: -0.02
